From paper PMC4848805
These are yes or no findings as the source states them, for the method shown. In cells and extracts the contact can be indirect. Some binding calls cover weakened binding; strength is not graded here.

Chains of the proteins cited; added tags and fusions are not shown. Lines headed by an entry give the natural chain unless they say otherwise; changes in a name come on top. A line that says so, or that is headed by a name, gives the form on record, which may keep a tag or linker.
UniProt P10415: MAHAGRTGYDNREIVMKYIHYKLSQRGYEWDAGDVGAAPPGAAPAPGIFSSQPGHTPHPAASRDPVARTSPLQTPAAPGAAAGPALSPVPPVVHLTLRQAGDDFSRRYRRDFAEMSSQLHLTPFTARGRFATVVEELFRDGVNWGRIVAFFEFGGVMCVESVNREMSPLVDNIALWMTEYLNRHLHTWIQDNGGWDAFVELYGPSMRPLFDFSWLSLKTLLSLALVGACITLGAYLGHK
UniProt Q13153: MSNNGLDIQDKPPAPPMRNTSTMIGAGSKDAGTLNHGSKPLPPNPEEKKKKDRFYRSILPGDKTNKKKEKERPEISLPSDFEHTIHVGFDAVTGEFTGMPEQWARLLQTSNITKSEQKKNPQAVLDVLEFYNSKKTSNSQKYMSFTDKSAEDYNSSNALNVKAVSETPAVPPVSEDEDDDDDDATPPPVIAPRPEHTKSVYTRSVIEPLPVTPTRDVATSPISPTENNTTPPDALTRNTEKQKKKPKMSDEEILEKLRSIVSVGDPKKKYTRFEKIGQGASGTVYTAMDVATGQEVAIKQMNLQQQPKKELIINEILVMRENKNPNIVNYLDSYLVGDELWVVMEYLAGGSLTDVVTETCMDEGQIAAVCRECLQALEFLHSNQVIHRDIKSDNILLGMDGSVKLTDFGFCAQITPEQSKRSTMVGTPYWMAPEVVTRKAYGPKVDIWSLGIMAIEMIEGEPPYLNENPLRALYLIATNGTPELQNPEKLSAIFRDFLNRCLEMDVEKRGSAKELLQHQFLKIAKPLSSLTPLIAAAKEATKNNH
Myc-tagged PAK1-DN (PAK1 H83,86L, K299R, dominant-negative) (Q13153, form named): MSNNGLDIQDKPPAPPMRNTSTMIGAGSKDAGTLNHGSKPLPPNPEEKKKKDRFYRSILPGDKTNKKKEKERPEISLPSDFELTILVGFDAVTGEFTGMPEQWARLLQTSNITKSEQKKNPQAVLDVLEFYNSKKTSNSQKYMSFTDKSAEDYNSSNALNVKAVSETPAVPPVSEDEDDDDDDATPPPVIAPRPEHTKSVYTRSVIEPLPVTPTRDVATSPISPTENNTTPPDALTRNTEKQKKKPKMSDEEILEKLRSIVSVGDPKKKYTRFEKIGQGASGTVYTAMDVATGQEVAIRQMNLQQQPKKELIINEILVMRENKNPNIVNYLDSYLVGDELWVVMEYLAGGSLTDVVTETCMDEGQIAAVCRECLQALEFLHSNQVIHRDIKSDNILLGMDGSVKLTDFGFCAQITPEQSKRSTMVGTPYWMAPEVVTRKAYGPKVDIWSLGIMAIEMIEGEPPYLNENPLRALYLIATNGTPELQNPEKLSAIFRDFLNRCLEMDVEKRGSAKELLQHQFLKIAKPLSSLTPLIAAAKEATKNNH

Target: FLAG-tagged Bcl-2 (human) (UniProt P10415)
Assay: co-IP; HEK 293T cells transfected with FLAG-tagged Bcl-2 and Myc-tagged PAK1-CA or PAK1-DN; lysates immunoprecipitated with anti-FLAG antibody, Western blot with anti-Myc antibody

Substance	binding
Myc-tagged PAK1-CA (PAK1 T423E, constitutively active) (from UniProt Q13153 1-545) (enzyme)	binds
Myc-tagged PAK1-DN (PAK1 H83,86L, K299R, dominant-negative) (from UniProt Q13153 1-545) (enzyme)	binds
